From article PMC6824681, “Phosphoproteomics reveals that the hVPS34 regulated SGK3 kinase specifically phosphorylates endosomal proteins including Syntaxin-7, Syntaxin-12, RFIP4 and WDR44” (Biochemical Journal, 2019)
No constants are given. Whether binding was seen depends on the method and setting. Binding seen in cells or lysates may run through a third protein. Some binding calls cover weakened binding; strength is not graded here. Where a sequence is shown, tags or fusion partners need not be part of it.

T1: GFP-STX12 S139A (human) (UniProt Q86Y82)
T1 sequence: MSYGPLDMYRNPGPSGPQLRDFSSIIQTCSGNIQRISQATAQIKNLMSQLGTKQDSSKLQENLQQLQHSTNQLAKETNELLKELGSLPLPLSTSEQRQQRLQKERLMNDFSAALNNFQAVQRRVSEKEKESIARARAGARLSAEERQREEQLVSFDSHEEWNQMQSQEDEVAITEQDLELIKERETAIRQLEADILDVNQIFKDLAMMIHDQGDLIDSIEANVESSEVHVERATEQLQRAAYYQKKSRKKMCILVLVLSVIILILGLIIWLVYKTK

T2: GFP-STX12 wild type (Syntaxin-12) (human, UniProt Q86Y82 1-276)
T2 construct: Syntaxin-12 (STX12), human; After IGF1 stimulation about 20% of the stably expressed protein was phosphorylated (Ser139) by phos-tag analysis; also called GFP-STX12 WT; wild-type STX12
T2 sequence (looked up): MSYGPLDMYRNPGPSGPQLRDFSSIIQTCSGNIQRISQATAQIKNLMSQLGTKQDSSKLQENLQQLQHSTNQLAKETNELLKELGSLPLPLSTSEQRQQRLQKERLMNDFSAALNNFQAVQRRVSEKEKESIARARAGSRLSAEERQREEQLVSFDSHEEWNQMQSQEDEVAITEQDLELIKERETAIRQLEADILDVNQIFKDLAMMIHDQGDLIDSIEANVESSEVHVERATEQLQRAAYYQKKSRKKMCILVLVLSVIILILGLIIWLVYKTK


Key:
[1] = molecular target: T1, GFP-STX12 S139A (human); test: co-IP; GFP-STX12 WT or S139A immunoprecipitated from 2 mg lysate with GFP-Trap beads, 4°C, 4 h; two washes with lysis buffer with 0.45 M NaCl, one with 0.15 M NaCl; immunoblot of endogenous partners; cells serum-starved overnight, ± 14H (1 µM, 1 h), ± IGF1 (50 ng/ml, 15 min)
[2] = molecular target: T2, GFP-STX12 wild type (Syntaxin-12); test: as above

Binder	binding [1]	binding [2]
Syntaxin 6 (STX6) (natural protein, human (endogenous in HEK293), UniProt O43752 1-255, looked up, Syntaxin-6 (STX6), endogenous in HEK293 cells, detected by immunoblot with anti-STX6; source: endogenous, HEK293 lysate) MSMEDPFFVVKGEVQKAVNTAQGLFQRWTELLQDPSTATREEIDWTTNELRNNLRSIEWDLEDLDETISIVEANPRKFNLDATELSIRKAFITSTRQVVRDMKDQMSTSSVQALAERKNRQALLGDSGSQNWSTGTTDKYGRLDRELQRANSHFIEEQQAQQQLIVEQQDEQLELVSGSIGVLKNMSQRIGGELEEQAVMLEDFSHELESTQSRLDNVMKKLAKVSHMTSDRRQWCAIAILFAVLLVVLILFLVL	binds	binds
VTI1A (natural protein, human (endogenous in HEK293), UniProt Q96AJ9 1-217, looked up, Vti1a (VTI1A), endogenous in HEK293 cells, detected by immunoblot with anti-VTI1A; source: endogenous, HEK293 lysate) MSSDFEGYEQDFAVLTAEITSKIARVPRLPPDEKKQMVANVEKQLEEAKELLEQMDLEVREIPPQSRGMYSNRMRSYKQEMGKLETDFKRSRIAYSDEVRNELLGDDGNSSENQRAHLLDNTERLERSSRRLEAGYQIAVETEQIGQEMLENLSHDREKIQRARERLRETDANLGKSSRILTGMLRRIIQNRILLVILGIIVVITILMAITFSVRRH	binds	binds
VAMP4 (natural protein, human (endogenous in HEK293), UniProt O75379 1-141, looked up, VAMP4, endogenous in HEK293 cells, detected by immunoblot with anti-VAMP4; also called v-SNARE protein VAMP4; source: endogenous, HEK293 lysate) MPPKFKRHLNDDDVTGSVKSERRNLLEDDSDEEEDFFLRGPSGPRFGPRNDKIKHVQNQVDEVIDVMQENITKVIERGERLDELQDKSESLSDNATAFSNRSKQLRRQMWWRGCKIKAIMALVAAILLLVIIILIVMKYRT	binds	binds
